# Measurements reported in patent US10668040B2, “Treatment of urea cycle disorders in neonates and infants” (Horizon Therapeutics, LLC, priority 2017, dated 2020).
# Some results come without the dose or concentration used.
# Test system: UCD patients
# Test: Example 3: amino acids baseline and change from baseline up to Month 24
# Assay type: in vivo, human
# [1] = Age 2 months to <2 years, Day 7
# [2] = Age 2 months to <2 years, Month 2
# [3] = Age 2 months to <2 years, Month 3
# [4] = Age 2 months to <2 years, Month 4
# [5] = Age 2 months to <2 years, Month 5
# [6] = Age 2 months to <2 years, Month 6
# [7] = Age 2 months to <2 years, Month 9
# [8] = Age 2 months to <2 years, Month 12
# [9] = Age 2 months to <2 years, Month 15
# [10] = Age 2 months to <2 years, Month 24
smiles,measurement,setting,value
"O=C(CCCc1ccccc1)OCC(COC(=O)CCCc1ccccc1)OC(=O)CCCc1ccccc1 [RAVICTI, benzenebutanoic acid, 1′,1″-(1,2,3-propanetriyl) ester]",Glutamate change from baseline,"Age 0 to <2 months, Month 12",8.75 (±97.329); μmol/L
same,Glutamine change from baseline,"Age 0 to <2 months, Month 12",−181.50 (±118.604); μmol/L
same,Isoleucine change from baseline,"Age 0 to <2 months, Month 12",−178.50 (±335.538); μmol/L
same,Leucine change from baseline,"Age 0 to <2 months, Month 12",−249.50 (±483.776); μmol/L
same,Sum of glutamine and glutamate change from baseline,"Age 0 to <2 months, Month 12",−172.75 (±210.202); μmol/L
same,Valine change from baseline,"Age 0 to <2 months, Month 12",−238.25 (±506.435); μmol/L
same,Glutamate change from baseline,"Age 0 to <2 months, Month 15",25.75 (±62.660); μmol/L
same,Glutamine change from baseline,"Age 0 to <2 months, Month 15",−103.75 (±328.583); μmol/L
same,Isoleucine change from baseline,"Age 0 to <2 months, Month 15",−139.50 (±359.287); μmol/L
same,Leucine change from baseline,"Age 0 to <2 months, Month 15",−195.75 (±496.313); μmol/L
same,Sum of glutamine and glutamate change from baseline,"Age 0 to <2 months, Month 15",−78.00 (±297.410); μmol/L
same,Valine change from baseline,"Age 0 to <2 months, Month 15",−137.00 (±519.042); μmol/L
same,Glutamate change from baseline,"Age 0 to <2 months, Month 18",2.50 (±21.920); μmol/L
same,Glutamine change from baseline,"Age 0 to <2 months, Month 18",−184.00 (±80.610); μmol/L
same,Isoleucine change from baseline,"Age 0 to <2 months, Month 18",1.00 (±45.255); μmol/L
same,Leucine change from baseline,"Age 0 to <2 months, Month 18",6.00 (±62.225); μmol/L
same,Sum of glutamine and glutamate change from baseline,"Age 0 to <2 months, Month 18",−181.50 (±102.530); μmol/L
same,Valine change from baseline,"Age 0 to <2 months, Month 18",38.00 (±67.882); μmol/L
same,Glutamate change from baseline,"Age 0 to <2 months, Month 24",16.10 (±95.461); μmol/L
same,Glutamine change from baseline,"Age 0 to <2 months, Month 24",−219.93 (±279.815); μmol/L
same,Isoleucine change from baseline,"Age 0 to <2 months, Month 24",−55.31 (±217.209); μmol/L
same,Leucine change from baseline,"Age 0 to <2 months, Month 24",−82.54 (±228.107). μmol/L
same,Sum of glutamine and glutamate change from baseline,"Age 0 to <2 months, Month 24",−203.83 (±255.810); μmol/L
same,Valine change from baseline,"Age 0 to <2 months, Month 24",−72.78 (±258.710); μmol/L
same,Glutamate change from baseline,[1],−54.50 (±92.626); μmol/L
same,Glutamine change from baseline,[1],−184.33 (±168.657); μmol/L
same,Isoleucine change from baseline,[1],2.67 (±19.159); μmol/L
same,Leucine change from baseline,[1],−0.83 (±32.762); μmol/L
same,Sum of glutamine and glutamate change from baseline,[1],−238.83 (±203.567); μmol/L
same,Valine change from baseline,[1],4.00 (±24.133); μmol/L
same,Glutamate change from baseline,[2],7.80 (±25.646); μmol/L
same,Glutamine change from baseline,[2],−174.60 (±318.249); μmol/L
same,Isoleucine change from baseline,[2],4.20 (±45.861); μmol/L
same,Leucine change from baseline,[2],9.80 (±65.975); μmol/L
same,Sum of glutamine and glutamate change from baseline,[2],−166.80 (±332.421); μmol/L
same,Valine change from baseline,[2],40.60 (±90.057); μmol/L
same,Glutamate change from baseline,[3],−16.33 (±39.209); μmol/L
same,Glutamine change from baseline,[3],−374.00 (±425.903); μmol/L
same,Isoleucine change from baseline,[3],−25.67 (±16.743); μmol/L
same,Leucine change from baseline,[3],−33.00 (±25.239); μmol/L
same,Sum of glutamine and glutamate change from baseline,[3],−390.33 (±462.292); μmol/L
same,Valine change from baseline,[3],−27.33 (±37.018); μmol/L
same,Glutamate change from baseline,[4],−13.00 (±39.590); μmol/L
same,Glutamine change from baseline,[4],−252.75 (±323.852); μmol/L
same,Isoleucine change from baseline,[4],−20.25 (±20.353); μmol/L
same,Leucine change from baseline,[4],−31.25 (±24.771); μmol/L
same,Sum of glutamine and glutamate change from baseline,[4],−265.75 (±339.015); μmol/L
same,Valine change from baseline,[4],−31.50 (±29.760); μmol/L
same,Glutamate change from baseline,[5],0.25 (±13.426); μmol/L
same,Glutamine change from baseline,[5],−370.25 (±377.222); μmol/L
same,Isoleucine change from baseline,[5],−20.00 (±36.341); μmol/L
same,Leucine change from baseline,[5],−39.50 (±61.136); μmol/L
same,Sum of glutamine and glutamate change from baseline,[5],−370.00 (±379.884); μmol/L
same,Valine change from baseline,[5],−56.00 (±75.939); μmol/L
same,Glutamate change from baseline,[6],−2.20 (±34.463); μmol/L
same,Glutamine change from baseline,[6],−113.20 (±519.710); μmol/L
same,Isoleucine change from baseline,[6],−16.40 (±12.137); μmol/L
same,Leucine change from baseline,[6],−25.40 (±13.594); μmol/L
same,Sum of glutamine and glutamate change from baseline,[6],−115.40 (±546.796); μmol/L
same,Valine change from baseline,[6],−21.60 (±18.202); μmol/L
same,Glutamate change from baseline,[7],30.80 (±17.092); μmol/L
same,Glutamine change from baseline,[7],−446.53 (±360.457); μmol/L
same,Isoleucine change from baseline,[7],−6.73 (±13.342); μmol/L
same,Leucine change from baseline,[7],−19.13 (±39.322); μmol/L
same,Sum of glutamine and glutamate change from baseline,[7],−415.73 (±365.419); μmol/L
same,Valine change from baseline,[7],−11.90 (±71.753); μmol/L
same,Glutamate change from baseline,[8],22.20 (±23.506); μmol/L
same,Glutamine change from baseline,[8],−450.50 (±386.699); μmol/L
same,Isoleucine change from baseline,[8],−13.33 (±15.885); μmol/L
same,Leucine change from baseline,[8],−34.37 (±23.283); μmol/L
same,Sum of glutamine and glutamate change from baseline,[8],−428.30 (±404.351); μmol/L
same,Valine change from baseline,[8],−48.87 (±51.644); μmol/L
same,Glutamate change from baseline,[9],39.00 (±00000); μmol/L
same,Glutamine change from baseline,[9],−149.00 (±00000); μmol/L
same,Isoleucine change from baseline,[9],−18.00 (±00000); μmol/L
same,Leucine change from baseline,[9],−40.00 (±00000); μmol/L
same,Sum of glutamine and glutamate change from baseline,[9],−110.00 (±00000); μmol/L
same,Valine change from baseline,[9],−46.00 (±0000); μmol/L
same,Glutamate change from baseline,[10],48.00 (±53.740); μmol/L
same,Glutamine change from baseline,[10],195.00 (±554.372); μmol/L
same,Isoleucine change from baseline,[10],1.50 (±10.607); μmol/L
same,Leucine change from baseline,[10],−1.50 (±31.820); μmol/L
same,Sum of glutamine and glutamate change from baseline,[10],243.00 (±608.112); μmol/L
same,Valine change from baseline,[10],5.00 (±55.154); μmol/L
